Data as given in PMC12700831.
No constants are given. Whether binding was seen depends on the method and setting. In cells and extracts the contact can be indirect. A yes stands for co-enrichment or nearness to the bait. Other partners may have been found.

By UniProt entry, the sequences of proteins in these tests, tags left out.
UniProt Q5TEA3: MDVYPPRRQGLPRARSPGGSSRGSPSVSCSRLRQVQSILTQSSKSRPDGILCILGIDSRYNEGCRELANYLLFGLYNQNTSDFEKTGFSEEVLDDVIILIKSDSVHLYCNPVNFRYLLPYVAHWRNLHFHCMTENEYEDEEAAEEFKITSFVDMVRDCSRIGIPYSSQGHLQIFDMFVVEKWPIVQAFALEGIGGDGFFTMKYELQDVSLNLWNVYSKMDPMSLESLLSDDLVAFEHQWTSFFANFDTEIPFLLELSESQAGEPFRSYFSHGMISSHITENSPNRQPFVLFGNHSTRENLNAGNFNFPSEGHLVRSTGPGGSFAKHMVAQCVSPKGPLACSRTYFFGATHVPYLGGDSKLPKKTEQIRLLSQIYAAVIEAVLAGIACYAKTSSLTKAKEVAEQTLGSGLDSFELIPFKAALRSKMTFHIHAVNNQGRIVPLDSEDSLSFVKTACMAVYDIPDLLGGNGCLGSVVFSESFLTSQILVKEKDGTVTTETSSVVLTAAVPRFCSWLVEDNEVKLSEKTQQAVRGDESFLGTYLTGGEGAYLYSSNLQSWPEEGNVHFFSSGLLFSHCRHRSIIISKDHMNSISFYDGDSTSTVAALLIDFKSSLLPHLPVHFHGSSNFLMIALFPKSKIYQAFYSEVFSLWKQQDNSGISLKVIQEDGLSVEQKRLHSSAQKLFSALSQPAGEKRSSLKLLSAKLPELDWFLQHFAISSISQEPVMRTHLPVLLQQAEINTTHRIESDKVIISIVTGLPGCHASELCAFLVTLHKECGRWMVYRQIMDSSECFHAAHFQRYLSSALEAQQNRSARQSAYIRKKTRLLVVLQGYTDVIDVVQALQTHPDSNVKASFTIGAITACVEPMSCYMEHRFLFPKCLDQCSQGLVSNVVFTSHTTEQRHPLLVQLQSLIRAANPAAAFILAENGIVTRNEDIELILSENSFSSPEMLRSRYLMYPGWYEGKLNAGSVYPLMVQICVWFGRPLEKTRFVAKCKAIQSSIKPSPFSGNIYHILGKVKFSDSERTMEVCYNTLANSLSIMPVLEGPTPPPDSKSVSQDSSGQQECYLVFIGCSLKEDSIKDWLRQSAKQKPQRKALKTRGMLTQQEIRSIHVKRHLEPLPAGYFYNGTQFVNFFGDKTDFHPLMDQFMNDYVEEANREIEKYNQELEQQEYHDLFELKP

B1: IFT74 (endogenous, human airway epithelial cells) (protein, UniProt Q96LB3 1-600)
chain: MASNHKSSAARPVSRGGVGLTGRPPSGIRPLSGNIRVATAMPPGTARPGSRGCPIGTGGVLSSQIKVAHRPVTQQGLTGMKTGTKGPQRQILDKSYYLGLLRSKISELTTEVNKLQKGIEMYNQENSVYLSYEKRAETLAVEIKELQGQLADYNMLVDKLNTNTEMEEVMNDYNMLKAQNDRETQSLDVIFTERQAKEKQIRSVEEEIEQEKQATDDIIKNMSFENQVKYLEMKTTNEKLLQELDTLQQQLDSQNMKKESLEAEIAHSQVKQEAVLLHEKLYELESHRDQMIAEDKSIGSPMEEREKLLKQIKDDNQEIASMERQLTDTKEKINQFIEEIRQLDMDLEEHQGEMNQKYKELKKREEHMDTFIETFEETKNQELKRKAQIEANIVALLEHCSRNINRIEQISSITNQELKMMQDDLNFKSTEVQKSQSTAQNLTSDIQRLQLDLQKMELLESKMTEEQHSLKSKIKQMTTDLEIYNDLPALKSSGEEKIKKLHQERMILSTHRNAFKKIMEKQNIEYEALKTQLQENETHSQLTNLERKWQHLEQNNFAMKEFIATKSQESDYQPIKKNVTKQIAEYNKTIVDALHSTSGN
B2: ENKUR (protein, UniProt Q8TC29 1-256)
chain: MDPTCSSECIYNLIPSDLKEPPQPPRYISIFKATVKDDMQKAKTAMKTMGPAKVEVPSPKDFLKKHSKEKTLPPKKNFDRNVPKKPAVPLKTDHPVMGIQSGKNFINTNAADIIMGVAKKPKPIYVDKRTGDKHDLEPSGLVPKYINKKDYGVTPEYICKRNEEIKKAQEDYDRYIQENLKKAAMKRLSDEEREAVLQGLKKNWEEVHKEFQSLSVFIDSIPKKIRKQRLEEEMKQLEHDIGIIEKHKIIYIANNA
B3: ODAD4 (protein, UniProt Q96NG3 1-672)
chain: MSDPEGETLRSTFPSYMAEGERLYLCGEFSKAAQSFSNALYLQDGDKNCLVARSKCFLKMGDLERSLKDAEASLQSDPAFCKGILQKAETLYTMGDFEFALVFYHRGYKLRPDREFRVGIQKAQEAINNSVGSPSSIKLENKGDLSFLSKQAENIKAQQKPQPMKHLLHPTKGEPKWKASLKSEKTVRQLLGELYVDKEYLEKLLLDEDLIKGTMKGGLTVEDLIMTGINYLDTHSNFWRQQKPIYARERDRKLMQEKWLRDHKRRPSQTAHYILKSLEDIDMLLTSGSAEGSLQKAEKVLKKVLEWNKEEVPNKDELVGNLYSCIGNAQIELGQMEAALQSHRKDLEIAKEYDLPDAKSRALDNIGRVFARVGKFQQAIDTWEEKIPLAKTTLEKTWLFHEIGRCYLELDQAWQAQNYGEKSQQCAEEEGDIEWQLNASVLVAQAQVKLRDFESAVNNFEKALERAKLVHNNEAQQAIISALDDANKGIIRELRKTNYVENLKEKSEGEASLYEDRIITREKDMRRVRDEPEKVVKQWDHSEDEKETDEDDEAFGEALQSPASGKQSVEAGKARSDLGAVAKGLSGELGTRSGETGRKLLEAGRRESREIYRRPSGELEQRLSGEFSRQEPEELKKLSEVGRREPEELGKTQFGEIGETKKTGNEMEKEYE
B4: CCDC17 (protein, UniProt Q96LX7 1-622)
chain: MDSHSGEPALLPCGTCDMVFRSSALLATHTQRFCIGHPTQEMTFGAQASVATEPQRAAVVPQEHQGVPQEPQGLPDQQASRSALKRLTEEVQWLRLSLQEMRPWITEVPRVFAGPWTRSEARPQSPMSEAVGSPSERLRALFRTRARRVAEMEAQSRALQLRGEELSRRLQVVACTRGGMSRLFGLEQEIRELQAEAGRTRGALEVLGARIQELQAEPGNPLSSRREAELYSPVQKANPGTLAAEIRALREAYIRDGGRDPGVLGQIWQLQVEASALELQRSQTRRGRAGATSGELPVVEAENRRLEAEILALQMQRGRAPLGPQDLRLLGDASLQPKGRRDPPLLPPPVAPPLPPLPGFSEPQLPGTMTRNLGLDSHFLLPTSDMLGPAPYDPGAGLVIFYDFLRGLEASWIWVQLRTGLARDGRDTGRTTALPPALCLPPPPAPGPMGNCAILASRQPVPRLPPSSSVSLVCELQVWQGLAWARAPQPKAWVSLGLFDQDQRVLSGRWRLPLRALPLDPSLSLGQLNGIPQAGQAELFLRLVNARDAAVQTLAEINPASVHEYQYPPPVSSTSSLEASFLTPAVGFADPPPRTEEPLSGVKDRDEGLGPHHSSDLPPVSF
B5: ODAD1 (protein, UniProt Q96M63 1-670)
chain: MEGERRAYSKEVHQRINKQLEEIRRLEEVRGDLQVQISAAQNQVKRLRDSQRLENMDRLLKGRAQVQAEIEELQEQTRALDKQIQEWETRIFTHSKNVRSPGFILDQKVKIRRRIRILENQLDRVTCHFDNQLVRNAALREELDLLRIDRNRYLNVDRKLKKEIHHLHHLVSTLILSSTSAYAVREEAKAKMGLLRERAEKEEAQSEMEAQVLQRQILHLEQLHHFLKLKNNDRQPDPDVLEKREKQAGEVAEGVWKTSQERLVLCYEDALNKLSQLMGESDPDLLVQKYLEIEERNFAEFNFINEQNLELEHVQEEIKEMQEALVSARASKDDQHLLQEQQQKVLQQRMDKVHSEAERLEARFQDVRGQLEKLKADIQLLFTKAHCDSSMIDDLLGVKTSMGDRDMGLFLSLIEKRLVELLTVQAFLHAQSFTSLADAALLVLGQSLEDLPKKMAPLQPPDTLEDPPGFEASDDYPMSREELLSQVEKLVELQEQAEAQRQKDLAAAAAKLDGTLSVDLASTQRAGSSTVLVPTRHPHAIPGSILSHKTSRDRGSLGHVTFGGLSSSTGHLPSHITHGDPNTGHVTFGSTSASSGGHVTFRPVSASSYLGSTGYVGSSRGGENTEGGVESGGTASDSSGGLGSSRDHVSSTGPASSTGPGSSTSKDSRG
B6: IFT81 (endogenous, human airway epithelial cells) (protein, UniProt Q8WYA0 1-676)
chain: MSDQIKFIMDSLNKEPFRKNYNLITFDSLEPMQLLQVLSDVLAEIDPKQLVDIREEMPEQTAKRMLSLLGILKYKPSGNATDMSTFRQGLVIGSKPVIYPVLHWLLQRTNELKKRAYLARFLIKLEVPSEFLQDETVADTNKQYEELMEAFKTLHKEYEQLKISGFSTAEIRKDISAMEEEKDQLIKRVEHLKKRVETAQNHQWMLKIARQLRVEKEREEYLAQQKQEQKNQLFHAVQRLQRVQNQLKSMRQAAADAKPESLMKRLEEEIKFNLYMVTEKFPKELENKKKELHFLQKVVSEPAMGHSDLLELESKINEINTEINQLIEKKMMRNEPIEGKLSLYRQQASIISRKKEAKAEELQEAKEKLASLEREASVKRNQTREFDGTEVLKGDEFKRYVNKLRSKSTVFKKKHQIIAELKAEFGLLQRTEELLKQRHENIQQQLQTMEEKKGISGYSYTQEELERVSALKSEVDEMKGRTLDDMSEMVKKLYSLVSEKKSALASVIKELRQLRQKYQELTQECDEKKSQYDSCAAGLESNRSKLEQEVRRLREECLQEESRYHYTNCMIKNLEVQLRRATDEMKAYISSDQQEKRKAIREQYTKNTAEQENLGKKLREKQKVIRESHGPNMKQAKMWRDLEQLMECKKQCFLKQQSQTSIGQVIQEGGEDRLIL
B7: C1ORF87 (protein, UniProt Q8N0U7 1-546)
chain: MSSAWKTPRGSDAMPEIMVKIIGSKHFQYLVEKPKIKENDSLKTETQTMHQKPMTDNARQMSRDTPVPINFTDQQTTDNPDDVKEKKHPENNQKSENNQKLLTGANSSRFLDGNIPSQANVHCSSVPTGDQSLSYVHGIPRRKLRDWSLEQMVRGSSDQPEDIGQSPSGTTNEDAFLLALVRRELKSRPLSSNLLEKLQKELKILDPISSGFLLQSQLSRLFLKHEVPLQLPTVKILCQRFSKRGSPEMVNYEKLLWFLNSAASDYPQQNKAAADLRKTESHGTHSQSTPPQHSSSQPEVNRSLLEILKMALRTTNGRLNIDNLNLSFRKEDRSFSGCLPLPKVRAICGKHGLYLTLSLLETLLNHQDLGYQNEIKWQNFVEMLTRASSDLLSDLPTGKNEKKAPAPPMEPEVPEMSQSKTEHMKTPEEELQPESSPAETSACKDPLKPLKIRPVSQPFVNPAVKNKAEECETWIDRFRKLENALYLCDLSNTGVLEKERARRLIHNYNLIYNLSLSPQKIDQALRRFRSGENMLLEPALRYLKEL
B8: CFAP57 (protein, UniProt Q96MR6 1-1250)
chain: MSAVVAQTLHVFGLRSHVANNIFYFDEQIIIFPSGNHCVKYNVDQKWQKFIPGSEKSQGMLALSISPNRRYLAISETVQEKPAITIYELSSIPCRKRKVLNNFDFQVQKFISMAFSPDSKYLLAQTSPPESNLVYWLWEKQKVMAIVRIDTQNNPVYQVSFSPQDNTQVCVTGNGMFKLLRFAEGTLKQTSFQRGEPQNYLAHTWVADDKIVVGTDTGKLFLFESGDQRWETSIMVKEPTNGSKSLDVIQESESLIEFPPVSSPLPSYEQMVAASSHSQMSMPQVFAIAAYSKGFACSAGPGRVLLFEKMEEKDFYRESREIRIPVDPQSNDPSQSDKQDVLCLCFSPSEETLVASTSKNQLYSITMSLTEISKGEPAHFEYLMYPLHSAPITGLATCIRKPLIATCSLDRSIRLWNYETNTLELFKEYQEEAYSISLHPSGHFIVVGFADKLRLMNLLIDDIRSFKEYSVRGCGECSFSNGGHLFAAVNGNVIHVYTTTSLENISSLKGHTGKIRSIVWNADDSKLISGGTDGAVYEWNLSTGKRETECVLKSCSYNCVTVSPDAKIIFAVGSDHTLKEIADSLILREISAFDVTYTAIVISHSGRMMFVGTSVGTIRAMKYPLPLQKEFNEYQAHAGPITKMLLTFDDQFLLTAAEDGCLFTWKVFDKDGRGIKREREVGFAEEVLVTKTDMEEKAQVMLELKTRVEELKMENEYQLRLKDMNYSEKIKELTDKFIQEMESLKTKNQVLRTEKEKQDVYHHEHIEDLLDKQSRELQDMECCNNQKLLLEYEKYQELQLKSQRMQEEYEKQLRDNDETKSQALEELTEFYEAKLQEKTTLLEEAQEDVRQQLREFEETKKQIEEDEDREIQDIKTKYEKKLRDEKESNLRLKGETGIMRKKFSSLQKEIEERTNDIETLKGEQMKLQGVIKSLEKDIQGLKREIQERDETIQDKEKRIYDLKKKNQELGKFKFVLDYKIKELKKQIEPRENEIRVMKEQIQEMEAELENFHKQNTQLELNITELWQKLRATDQEMRRERQKERDLEALVKRFKTDLHNCVAYIQEPRLLKEKVRGLFEKYVQRADMVEIAGLNTDLQQEYTRQREHLERNLATLKKKVVKEGELHRTDYVRIMQENVSLIKEINELRRELKFTRSQVYDLEAALKLTKKVRPQEVSETEPSRDMLSTAPTARLNEQEETGRIIEMQRLEIQRLRDQIQEQEQVTGFHTLAGVRLPSLSNSEVDLEVKTN

What follows are binders tested against DNAAF9 (endogenous, human airway epithelial cells) (human (endogenous in HAECs)) (UniProt Q5TEA3) (assay: affinity purification with mass spectrometry; endogenous DNAAF9 immunoprecipitated from HAEC whole-cell lysates at ALI day 19 (ECs) and day 45 (MCs), anti-DNAAF9 against isotype-matched IgG, protein A/G beads, TMT labeling and MS).

binding, binds:
B1, B2, B3, B4, B5, B6, B7, B8
